Experimental findings from publication PMC4830575 are described below.

These are yes or no findings as the source states them, for the method shown. In cells and extracts the contact can be indirect. Some entries that bind do so weakly or less than the wild type. Tags and fused reporters may be left off the sequences shown.

Test [1] has as its target T1, Bazooka endogenously tagged with GFP (Baz::GFP) (Drosophila (endogenous in embryos and wing imaginal discs)) (UniProt O96782).
T1 sequence: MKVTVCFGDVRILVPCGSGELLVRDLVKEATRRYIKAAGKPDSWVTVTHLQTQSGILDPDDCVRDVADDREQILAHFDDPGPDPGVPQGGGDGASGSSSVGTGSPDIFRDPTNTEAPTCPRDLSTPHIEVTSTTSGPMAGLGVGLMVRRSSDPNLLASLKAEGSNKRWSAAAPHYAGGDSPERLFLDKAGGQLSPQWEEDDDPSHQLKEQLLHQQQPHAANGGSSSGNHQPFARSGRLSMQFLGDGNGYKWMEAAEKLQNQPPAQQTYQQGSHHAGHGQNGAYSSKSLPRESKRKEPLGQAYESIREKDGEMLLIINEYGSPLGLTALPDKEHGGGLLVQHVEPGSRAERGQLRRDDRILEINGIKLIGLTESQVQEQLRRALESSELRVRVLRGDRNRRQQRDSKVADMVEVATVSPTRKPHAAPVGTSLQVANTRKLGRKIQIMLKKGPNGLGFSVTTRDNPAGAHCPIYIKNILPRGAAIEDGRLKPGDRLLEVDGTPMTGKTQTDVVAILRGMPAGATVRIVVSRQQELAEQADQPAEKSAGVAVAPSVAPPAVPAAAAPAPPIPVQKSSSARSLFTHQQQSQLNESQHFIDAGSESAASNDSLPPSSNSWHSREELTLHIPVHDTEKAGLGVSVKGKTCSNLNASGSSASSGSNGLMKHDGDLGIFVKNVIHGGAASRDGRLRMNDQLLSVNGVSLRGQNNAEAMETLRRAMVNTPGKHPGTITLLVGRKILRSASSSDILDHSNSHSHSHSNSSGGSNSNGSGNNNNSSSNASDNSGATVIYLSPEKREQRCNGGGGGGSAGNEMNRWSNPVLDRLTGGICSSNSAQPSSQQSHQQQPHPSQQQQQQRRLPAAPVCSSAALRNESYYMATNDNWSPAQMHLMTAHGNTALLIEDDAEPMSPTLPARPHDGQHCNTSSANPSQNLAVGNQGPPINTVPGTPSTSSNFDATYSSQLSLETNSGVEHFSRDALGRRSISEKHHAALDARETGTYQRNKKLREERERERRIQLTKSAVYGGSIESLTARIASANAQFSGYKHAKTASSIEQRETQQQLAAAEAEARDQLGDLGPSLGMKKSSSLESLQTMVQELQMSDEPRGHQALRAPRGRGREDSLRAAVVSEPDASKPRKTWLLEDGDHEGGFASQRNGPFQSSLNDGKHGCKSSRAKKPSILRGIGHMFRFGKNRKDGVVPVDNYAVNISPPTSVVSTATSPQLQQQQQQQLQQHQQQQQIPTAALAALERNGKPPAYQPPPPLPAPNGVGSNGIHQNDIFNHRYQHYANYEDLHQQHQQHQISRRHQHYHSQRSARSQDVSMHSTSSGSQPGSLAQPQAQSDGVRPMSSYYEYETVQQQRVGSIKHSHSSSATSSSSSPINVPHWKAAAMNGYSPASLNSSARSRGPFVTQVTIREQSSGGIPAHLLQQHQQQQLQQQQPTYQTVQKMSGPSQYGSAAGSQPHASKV
The test is described as follows: co-IP; Baz::GFP embryo extract precipitated with a Baz antibody; Western blot. Background: A western blot detects proteins with antibodies after separation by electrophoresis.

The target of test [2] is T1, Bazooka endogenously tagged with GFP (Baz::GFP) (Drosophila (endogenous in embryos and wing imaginal discs)). The experiment in a line: proximity ligation; Duolink PLA on fixed third instar wing imaginal discs; anti-GFP with anti-Magi or anti-aPKC antibodies; controls with one antibody only.

B1: aPKC (enzyme, UniProt A1Z9X0 1-606)
chain: MQKMPSQILNDGSSVSLNSASMNMANTPNSITVKTAYNGQIIITTINKNISYEELCYEIRNICRFPLDQPFTIKWVDEENDPCTISTKMELDEAIRLYEMNFDSQLVIHVFPNVPQAPGLSCDGEDRSIYRRGARRWRKLYRVNGHIFQAKRFNRRAFCAYCQDRIWGLGRQGFKCIQCKLLVHKKCHKLVQKHCTDQPEPLVKERAEESSDPIPVPLPPLPYEAMSGGAEACETHDHAHIVAPPPPEDPLEPGTQRQYSLNDFELIRVIGRGSYAKVLMVELRRTRRIYAMKVIKKALVTDDEDIDWVQTEKHVFETASNHPFLVGLHSCFQTPSRLFFVIEFVRGGDLMYHMQRQRRLPEEHARFYAAEISLALNFLHEKGIIYRDLKLDNVLLDHEGHIKLTDYGMCKEGIRPGDTTSTFCGTPNYIAPEILRGEDYGFSVDWWALGVLLYEMLAGRSPFDLAGASENPDQNTEDYLFQVILEKTIRIPRSLSVRAASVLKGFLNKNPADRLGCHRESAFMDIVSHPFFKNMDWELLERKQVTPPFKPRLDSDRDLANFPPEFTGEAVQLTPDDDHVIDNIDQSEFEGFEYVNPLLMSLEDCV
Consider B1, for which the binding entry in test [1] and in test [2] was “binds” in each case.

B2: Discs-large (protein, UniProt P31007 1-970)
chain: MPVKKQEAHRALELLEDYHARLSEPQDRALRIAIERVIRIFKSRLFQALLDIQEFYELTLLDDSKSIQQKTAETLQIATKWEKDGQAVKIADFIKSSNLNRNCAYEFNNDASSNQTNQSALNQNPIANNVSAQAQAEALSRTFKSELEEILNQRMRIESDTENAKEPTVEQQQKQQQAQQRSSRSPQQQNPQQQQGSKSRSGSQTVNGDDSWLYEDIQLERGNSGLGFSIAGGTDNPHIGTDTSIYITKLISGGAAAADGRLSINDIIVSVNDVSVVDVPHASAVDALKKAGNVVKLHVKRKRGTATTPAAGSAAGDARDSAASGPKVIEIDLVKGGKGLGFSIAGGIGNQHIPGDNGIYVTKLMDGGAAQVDGRLSIGDKLIAVRTNGSEKNLENVTHELAVATLKSITDKVTLIIGKTQHLTTSASGGGGGGLSSGQQLSQSQSQLATSQSQSQVHQQQHATPMVNSQSTEPGSRYASTNVLAAVPPGTPRAVSTEDITREPRTITIQKGPQGLGFNIVGGEDGQGIYVSFILAGGPADLGSELKRGDQLLSVNNVNLTHATHEEAAQALKTSGGVVTLLAQYRPEEYNRFEARIQELKQQAALGAGGSGTLLRTTQKRSLYVRALFDYDPNRDDGLPSRGLPFKHGDILHVTNASDDEWWQARRVLGDNEDEQIGIVPSKRRWERKMRARDRSVKFQGHAAANNNLDKQSTLDRKKKNFTFSRKFPFMKSRDEKNEDGSDQEPFMLCYTQDDANAEGASEENVLSYEAVQRLSINYTRPVIILGPLKDRINDDLISEYPDKFGSCVPHTTRPKREYEVDGRDYHFVSSREQMERDIQNHLFIEAGQYNDNLYGTSVASVREVAEKGKHCILDVSGNAIKRLQVAQLYPVAVFIKPKSVDSVMEMNRRMTEEQAKKTYERAIKMEQEFGEYFTGVVQGDTIEEIYSKVKSMIWSQSGPTIWVPSKESL
With B2, the binding result in test [1] is “no binding”.
